Measured values taken from PubChem BioAssay (EPA / NIEHS).
For part of these data: This list holds what a sample rich in hits left over. Records with an inconclusive call do not appear. This is a selection; strong and weak results do not stand in their true shares. The source made the active and inactive calls. How the source made its calls, unless noted: active means hit-call score of the fitted dose curve at least 0.9, where 1 is the maximum; inconclusive means response in the unintended direction; inactive means score below 0.9.

Protein sequences, listed by entry. Tags and fused reporters are not part of them. Lines headed by an entry give the natural chain unless they say otherwise; changes in a name come on top.
UniProt P19643, whole entry, looked up: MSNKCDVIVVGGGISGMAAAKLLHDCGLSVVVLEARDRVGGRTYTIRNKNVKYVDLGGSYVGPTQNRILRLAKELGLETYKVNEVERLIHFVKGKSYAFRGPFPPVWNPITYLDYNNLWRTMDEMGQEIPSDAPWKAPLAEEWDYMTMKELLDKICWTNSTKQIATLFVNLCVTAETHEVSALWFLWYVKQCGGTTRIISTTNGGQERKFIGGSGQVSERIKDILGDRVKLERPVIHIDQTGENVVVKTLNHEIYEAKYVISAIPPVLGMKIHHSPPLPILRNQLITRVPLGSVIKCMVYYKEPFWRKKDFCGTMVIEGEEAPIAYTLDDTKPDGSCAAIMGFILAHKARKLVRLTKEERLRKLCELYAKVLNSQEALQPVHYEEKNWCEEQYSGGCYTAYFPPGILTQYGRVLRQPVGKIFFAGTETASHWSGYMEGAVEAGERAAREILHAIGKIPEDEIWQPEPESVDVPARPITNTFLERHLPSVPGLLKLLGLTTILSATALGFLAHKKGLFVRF
UniProt P42575: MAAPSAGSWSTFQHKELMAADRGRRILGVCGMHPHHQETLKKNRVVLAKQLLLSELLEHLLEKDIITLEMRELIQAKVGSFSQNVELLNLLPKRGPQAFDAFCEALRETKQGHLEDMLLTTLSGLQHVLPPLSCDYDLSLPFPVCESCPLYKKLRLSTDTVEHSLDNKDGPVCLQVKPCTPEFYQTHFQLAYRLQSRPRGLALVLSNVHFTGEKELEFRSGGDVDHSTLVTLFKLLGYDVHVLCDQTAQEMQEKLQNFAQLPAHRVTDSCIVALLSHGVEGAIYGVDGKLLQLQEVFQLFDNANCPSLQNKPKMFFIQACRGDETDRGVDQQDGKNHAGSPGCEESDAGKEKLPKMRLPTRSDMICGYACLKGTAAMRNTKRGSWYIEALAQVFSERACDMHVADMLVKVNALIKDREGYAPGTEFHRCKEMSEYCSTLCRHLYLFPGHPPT
UniProt P31749: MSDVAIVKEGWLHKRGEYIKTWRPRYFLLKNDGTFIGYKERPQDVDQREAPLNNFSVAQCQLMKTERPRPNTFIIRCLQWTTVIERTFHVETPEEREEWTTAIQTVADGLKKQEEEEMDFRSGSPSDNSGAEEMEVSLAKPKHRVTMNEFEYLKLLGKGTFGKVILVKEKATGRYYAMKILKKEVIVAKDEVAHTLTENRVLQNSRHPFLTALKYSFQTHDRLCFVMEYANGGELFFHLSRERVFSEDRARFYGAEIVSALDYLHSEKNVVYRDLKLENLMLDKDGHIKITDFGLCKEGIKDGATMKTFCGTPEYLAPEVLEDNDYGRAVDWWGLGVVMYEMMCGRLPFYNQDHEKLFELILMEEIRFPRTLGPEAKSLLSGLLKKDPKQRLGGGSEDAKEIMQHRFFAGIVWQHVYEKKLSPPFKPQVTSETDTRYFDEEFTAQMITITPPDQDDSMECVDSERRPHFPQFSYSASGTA
UniProt P37231: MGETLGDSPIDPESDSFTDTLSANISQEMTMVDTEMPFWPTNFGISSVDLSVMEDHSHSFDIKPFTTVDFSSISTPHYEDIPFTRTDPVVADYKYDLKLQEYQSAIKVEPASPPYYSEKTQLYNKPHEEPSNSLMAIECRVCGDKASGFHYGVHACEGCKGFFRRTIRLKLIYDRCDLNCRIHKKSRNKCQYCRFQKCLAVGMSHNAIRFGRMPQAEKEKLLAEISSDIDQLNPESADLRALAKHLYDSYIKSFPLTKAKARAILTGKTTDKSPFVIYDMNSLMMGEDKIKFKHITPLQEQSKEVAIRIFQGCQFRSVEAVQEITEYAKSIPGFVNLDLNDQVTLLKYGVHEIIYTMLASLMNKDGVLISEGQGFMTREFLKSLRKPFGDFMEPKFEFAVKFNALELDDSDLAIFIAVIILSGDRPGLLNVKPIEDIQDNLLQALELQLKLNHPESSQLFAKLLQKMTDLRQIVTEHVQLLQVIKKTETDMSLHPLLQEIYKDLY
UniProt P28190, whole entry, looked up: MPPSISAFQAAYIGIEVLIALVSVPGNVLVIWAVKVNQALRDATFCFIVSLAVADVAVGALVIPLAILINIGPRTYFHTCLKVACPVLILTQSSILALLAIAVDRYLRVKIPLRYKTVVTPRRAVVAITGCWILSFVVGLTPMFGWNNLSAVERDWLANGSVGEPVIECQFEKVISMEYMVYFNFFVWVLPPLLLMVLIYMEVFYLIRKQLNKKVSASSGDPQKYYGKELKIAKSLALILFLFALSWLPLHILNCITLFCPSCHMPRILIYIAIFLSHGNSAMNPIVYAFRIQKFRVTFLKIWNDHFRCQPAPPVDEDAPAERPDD
UniProt O70528: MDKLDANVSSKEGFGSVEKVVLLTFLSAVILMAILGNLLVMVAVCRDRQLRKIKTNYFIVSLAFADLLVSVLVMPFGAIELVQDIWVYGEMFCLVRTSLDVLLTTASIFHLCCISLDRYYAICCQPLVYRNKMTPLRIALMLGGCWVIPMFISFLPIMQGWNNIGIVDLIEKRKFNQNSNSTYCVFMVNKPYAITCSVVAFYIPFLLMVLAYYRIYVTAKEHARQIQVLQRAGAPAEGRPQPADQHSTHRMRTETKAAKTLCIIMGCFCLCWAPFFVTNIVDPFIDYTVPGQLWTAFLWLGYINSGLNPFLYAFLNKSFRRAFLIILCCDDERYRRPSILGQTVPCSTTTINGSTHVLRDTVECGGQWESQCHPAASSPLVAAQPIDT
UniProt P19328, whole entry, looked up: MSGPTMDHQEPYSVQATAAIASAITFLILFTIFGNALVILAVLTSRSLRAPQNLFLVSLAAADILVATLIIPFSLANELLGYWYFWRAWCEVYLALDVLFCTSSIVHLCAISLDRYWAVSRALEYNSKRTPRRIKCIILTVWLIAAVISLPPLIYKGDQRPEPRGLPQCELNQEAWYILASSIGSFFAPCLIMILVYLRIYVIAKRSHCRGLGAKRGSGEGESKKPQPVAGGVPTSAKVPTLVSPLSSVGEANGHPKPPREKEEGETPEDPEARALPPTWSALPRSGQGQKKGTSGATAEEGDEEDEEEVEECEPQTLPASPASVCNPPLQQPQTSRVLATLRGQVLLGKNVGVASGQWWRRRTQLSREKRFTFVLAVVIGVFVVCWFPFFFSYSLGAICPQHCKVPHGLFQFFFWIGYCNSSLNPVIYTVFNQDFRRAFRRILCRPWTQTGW

What was measured:
[1] = molecular target: rat Monoamine Oxidase, MAO-B, Central (MAOBC), Maob (gene 25750) (UniProt P19643); test: NVS_ENZ_rMAOBC: NovaScreen (NVS) Enzymatic Assay for rat Monoamine Oxidase, MAO-B, Central (MAOBC) (AID 2283238)
In short: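 Cell-free radiometric assay, rat brain lysate. Read-out: scintillation counts, 1.17 h post-dosing. Screen 25 uM in duplicate; actives (e.g. ≥30% inhibition) then singleton concentration-response, max 50 uM. Activity loss fitted relative to DMSO.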

[2] = read-out: ABC Transporter (ABCB1), ABCB1 (gene 5243); test: LTEA_HepaRG_ABCB1: Life Technologies and Expression Analysis (LTEA) Assay for ABC Transporter (ABCB1) using HepaRG (AID 2283460; active means hit-call score of the fitted dose curve at least 0.9, where 1 is the maximum; inactive means score below 0.9); settings: actives raise or lower the signal; mRNA level, 48 h
In short: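 HepaRG, 48 h exposure, 8-pt half-log series from 100 uM, 0.5% DMSO vehicle, duplicates. Readout: ABCB1 transcript by Fluidigm TaqMan qRT-PCR, housekeeping-normalized; bidirectional curve fit vs DMSO baseline.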

[3] = read-out: growth arrest and DNA damage 45 (GADD45B), GADD45B (gene 4616); test: LTEA_HepaRG_GADD45B: Life Technologies and Expression Analysis (LTEA) Assay for growth arrest and DNA damage 45 (GADD45B) using HepaRG (AID 2283461; active means hit-call score of the fitted dose curve at least 0.9, where 1 is the maximum; inactive means score below 0.9); settings: actives raise or lower the signal; mRNA level, 48 h
In short: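 qRT-PCR read-out (Fluidigm TaqMan, housekeeping-normalized) of mRNA change in human HepaRG cells after 48 h chemical exposure; 8-point curve, top 100 uM, half-log steps, 0.5% DMSO vehicle; gain or loss fitted relative to DMSO baseline.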

[4] = read-out: matrix metalloproteinase-10 (MMP10), MMP10 (gene 4319); test: LTEA_HepaRG_MMP10: Life Technologies and Expression Analysis (LTEA) Assay for matrix metalloproteinase-10 (MMP10) using HepaRG (AID 2283517; active means hit-call score of the fitted dose curve at least 0.9, where 1 is the maximum; inactive means score below 0.9); settings: actives raise or lower the signal; mRNA level, 48 h
In short: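 Transcript levels come from Fluidigm qRT-PCR normalized to three housekeeping genes, with curves fitted bidirectionally against 0.5% DMSO. Human HepaRG cells were dosed for 48 hours at concentrations up to 100 uM.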

[5] = CCTE_Shafer_MEA_acute_interburst_interval_mean: CCTE's Neural Acute Assay for Mean Interburst Interval, Shafer Lab (AID 2284016; active means hit-call score of the fitted dose curve at least 0.9, where 1 is the maximum; inactive means score below 0.9;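 further: percent change of mean interburst interval versus each well's own pre-dose baseline; curves fitted for decrease in interburst interval relative to DMSO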)
In short: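 MEA recording of spontaneous network bursting in primary rat cortical cultures; mean interburst interval was compared before and after a 40-min compound exposure (0.03-40 uM) and expressed as percent change, relative to DMSO.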

[6] = molecular target: rat Monoamine Oxidase, MAO-B, Peripheral (MAOBP), Maob (gene 25750) (UniProt P19643); test: NVS_ENZ_rMAOBP: NovaScreen (NVS) Enzymatic Assay for rat Monoamine Oxidase, MAO-B, Peripheral (MAOBP) (AID 2283242)
[7] = molecular target: human Caspase 2 (CASP2), CASP2 (gene 835) (UniProt P42575); test: NVS_ENZ_hCASP2: NovaScreen (NVS) Enzymatic Assay for human Caspase 2 (CASP2) (AID 2283135)
In short: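 Single-point duplicate testing at 25 uM preceded concentration series topping at 50 uM. Activity of the recombinant E. coli-derived protease was followed by fluorescent substrate cleavage 1 h post-dosing, relative to DMSO.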

[8] = molecular target: human AKT serine/threonine Kinase 1 (AKT1), AKT1 (gene 207) (UniProt P31749); test: NVS_ENZ_hAKT1: NovaScreen (NVS) Enzymatic Assay for human AKT serine/threonine Kinase 1 (AKT1) (AID 2283138)
In short: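 Fluorescence and mobility-shift readout of kinase activity, taken 1 h post-dosing in a cell-free format with recombinant protein. Primary screen at 25 uM in duplicate; hits (e.g. 30% inhibition) retested in concentration series topping at 50 uM.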

[9] = molecular target: Peroxisome proliferator-activated receptor gamma (Homo sapiens) (UniProt P37231); test: OT_PPARg_PPARgSRC1_1440: Odyssey Thera (OT) 24-hour Protein-Complementation Assay for Peroxisome Proliferator-activated Receptor Gamma/ SRC-1 Co-activator (AID 2283388);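 further: nuclear to cytoplasmic ratio of reconstituted Venus YFP fluorescence in fixed imaged cells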
In short: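 Readout: nuclear-to-cytoplasmic 488 nm fluorescence ratio, ≥350 cells per image, 8 images per well, after 24 h compound exposure of HEK293T expressing PPARg/SRC-1 split-YFP fusions. Activity fitted in positive direction against DMSO.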

[10] = molecular target: Adenosine receptor A1 (Bos taurus) (UniProt P28190); test: NVS_GPCR_bAdoR_NonSelective: NovaScreen (NVS) G Protein-Coupled Receptor Assay for bovine Adenosine Receptor (AdoR), Non-selective Binding (AID 2283244)
In short: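 Cell-free binding with membranes from bovine striatum: radioligand displaced by test chemical, read after 1 h by filtration and scintillation. Single-point 25 uM duplicate primary, 50 uM top concentration in follow-up curves, DMSO baseline.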

[11] = read-out: Tumor necrosis factor receptor 1 (TNFRSF1A), TNFRSF1A (gene 7132); test: LTEA_HepaRG_TNFRSF1A: Life Technologies and Expression Analysis (LTEA) Assay for Tumor necrosis factor receptor 1 (TNFRSF1A) using HepaRG (AID 2283535; active means hit-call score of the fitted dose curve at least 0.9, where 1 is the maximum; inactive means score below 0.9); settings: actives raise or lower the signal; mRNA level, 48 h
In short: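 HepaRG, 48 h plating then 48 h chemical exposure, serum-free induction media; 8-pt CRC from 100 uM, half-log, 0.5% DMSO vehicle, duplicates. Readout: TaqMan qRT-PCR (Fluidigm), housekeeping-gene normalized; bidirectional fit vs DMSO.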

[12] = molecular target: guinea pig Serotonin, 5-Hydroxytryptamine Receptor 4 (5HT4), HTR4 (gene 100135548) (UniProt O70528); test: NVS_GPCR_g5HT4: NovaScreen (NVS) G Protein-Coupled Receptor Assay for guinea pig Serotonin, 5-Hydroxytryptamine Receptor 4 (5HT4) (AID 2283294)
[13] = read-out: Cyclin D2 (CCND2), CCND2 (gene 894); test: LTEA_HepaRG_CCND2: Life Technologies and Expression Analysis (LTEA) Assay for Cyclin D2 (CCND2) using HepaRG (AID 2283449; active means hit-call score of the fitted dose curve at least 0.9, where 1 is the maximum; inactive means score below 0.9;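 further: CCND2 transcript measured by TaqMan qRT-PCR and normalised to three housekeeping genes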); settings: actives raise or lower the signal; mRNA level, 48 h
In short: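 HepaRG, 48 h dosing, 8-pt half-log curve from 100 uM, 0.5% DMSO; duplicate wells. Readout: CCND2 transcript by microfluidic qRT-PCR, housekeeping-normalised; bidirectional fit vs DMSO baseline.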

[14] = read-out: Interleukin 6 Receptor (IL6R), IL6R (gene 3570); test: LTEA_HepaRG_IL6R: Life Technologies and Expression Analysis (LTEA) Assay for Interleukin 6 Receptor (IL6R) using HepaRG (AID 2283510; active means hit-call score of the fitted dose curve at least 0.9, where 1 is the maximum; inactive means score below 0.9); settings: actives raise or lower the signal; mRNA level, 48 h
In short: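 HepaRG, 48 h exposure, 8-pt half-log series, top 100 uM, 0.5% DMSO vehicle, duplicates. Read-out: TaqMan qRT-PCR of IL6R transcript, housekeeping-gene normalized. Gain or loss fitted relative to DMSO baseline.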

[15] = molecular target: Voltage-dependent N-type calcium channel subunit alpha-1B (Rattus norvegicus) (UniProt Q02294); test: NVS_IC_rCaChN: NovaScreen (NVS) Ion Channel Assay for rat Calcium Channel, Type N (CaChN) (AID 2283317)
Adra2b (gene 24174) = Adra2b (gene 24174) (UniProt P19328); test: NVS_GPCR_rmAdra2B: NovaScreen (NVS) G Protein-Coupled Receptor Assay for hybird cells Adrenergic, Alpha 2B Receptor (Adra2B) (AID 2283306)
In short: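 Compounds screened first at 25 uM in duplicate, with actives followed up in concentration-response; specific radioligand displacement from hybrid neuroglioma/blastoma cell membrane preparations measured by filter scintillation counting after 1 h, normalized to DMSO.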

[16] = Tanguay_ZF_120hpf_NC_legacy: (Legacy) Oregon State University Tanguay Lab 120 Hour Post-fertilization zebrafish Assay for Notochord and Tail Malformation (AID 2283656)
In short: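 Binary notochord-distortion calls, made by brightfield inspection, form the read-out; activity is fitted in the positive direction against DMSO. Exposure ran statically from 6 to 120 hpf at 28C with 0.64% DMSO.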

SMILES: Cn1c(-c2ccccc2)cc(-c2ccccc2)[n+]1C
- outcome [1]: inactive
- AC50 [2]: active: 9.92 µM
- AC50 [3]: active: 80.7 µM
- outcome [4]: inactive
- AC50 [5]: active: 4.08 µM

SMILES: c1ccc2n[nH]nc2c1
- AC50 [6]: active: 11.6 µM

SMILES: CC1(C)C(C=C(Cl)Cl)C1C(=O)OCc1cccc(Oc2ccccc2)c1 (stereo not drawn)
- outcome [7]: inactive

SMILES: CCCC(=NOCC)C1=C(O)CC(CC(C)SCC)CC1=O (stereo not drawn)
- outcome [8]: inactive
- outcome [9]: inactive

SMILES: Cc1cccc(N)c1N
- outcome [10]: inactive
- AC50 [11]: active: 11.8 µM

SMILES: CSC(C)(C)C=NO
- outcome [12]: inactive
- outcome [13]: inactive
- outcome [3]: inactive
- outcome [14]: inactive

SMILES: NC(=O)O
- outcome [15]: inactive

SMILES: COc1ccccc1N
- AC50 (Adra2b (gene 24174)): active: 5.56 µM
- outcome [16]: inactive
